Laboratory results reported in PubChem BioAssay AID190 (DTP/NCI, 2004).
The list shows only some results of the screen, not a fair sample: it gathers tests that were run many times, whatever their T/C, doses with no T/C, and many T/C values between a quarter and a half above the control. Further doses and runs are listed elsewhere. T/C: endpoint of the treated group in % of that of the vehicle group. Some entries give survivors of the animals treated and no T/C: the source holds a T/C of zero for them, seemingly a mark for toxic or unscored doses. Some survivor counts are full or nearly so, which does not show that the dose was tolerated: survival well below the control is almost never listed, so the zero probably covers shortened survival too. Survivors were counted at the toxicity check, usually on the fifth day, unless a day is given; later deaths do not show. Schedules are NCI's codes, taken here to give the interval after Q, in days (D) or hours (H), and the number of doses after X. Brackets with × give the number of equal values in this list. Some entries hold several experiments; their values stand side by side, smallest first. Where survival is the endpoint, the PubChem record calls one and a half times the control and up active, and a quarter to a half above the control has no call in these data; cut-offs in other NCI protocols can differ. Some T/C values are followed by the survivors on the day toxicity was checked, most often the fifth; without a count, all were alive then.

System: AKR/Lw mice, AKR lymphoma ip, median survival T/C
Test: NCI In Vivo Anticancer Drug Screen. Data for tumor model Lymphoma AKR (Transplanted) (intraperitoneal) in AKR/Lw mice
Settings: T/C endpoint: median survival time, higher T/C = longer survival
Description: The antitumor activity of compounds was measured in mice bearing transplantable tumors. Survival or tumor size were measured and the results are expressed as the measurement made in the treated group (T) divided by the measurement made in the vehicle treated control group (C). The tumor model used in this assay is Lymphoma AKR (Transplanted) (intraperitoneal) in AKR/Lw mice

[1] = dose: 25.0 mg/kg/injection, schedule: Q01DX009 (ip), vehicle: saline
[2] = dose: 40.0 mg/kg/injection, schedule: Q04DX003 (ip), vehicle: Klucel (hydroxypropylcellulose) (HPC)
[3] = dose: 75.0 mg/kg/injection, schedule: Q04DX003 (ip), vehicle: saline
[4] = dose: 200.0 mg/kg/injection, schedule: Q01DX001 (ip), vehicle: saline

Compound: Cc1c2ccncc2c(C)c2c1[nH]c1ccccc12
- T/C (dose: 2.5 mg/kg/injection, schedule: Q01DX009 (ip), vehicle: Klucel (hydroxypropylcellulose) (HPC)): 93 [7 of 10 alive], 102, 108, 126 % of control
- T/C (dose: 2.5 mg/kg/injection, schedule: Q01DX009 (ip), vehicle: saline): 141 % of control
- T/C (dose: 5.0 mg/kg/injection, schedule: Q01DX009 (ip), vehicle: Klucel (hydroxypropylcellulose) (HPC)): 100 [9 of 10 alive], 113, 123, 126 % of control
- T/C (dose: 6.0 mg/kg/injection, schedule: Q01DX009 (ip), vehicle: saline, evaluated on day 45): 135 % of control
- T/C (dose: 6.0 mg/kg/injection, schedule: Q01DX009 (ip), vehicle: saline, evaluated on day 60): 126 % of control
- T/C (dose: 10.0 mg/kg/injection, schedule: Q01DX009 (ip), vehicle: Klucel (hydroxypropylcellulose) (HPC)): 108, 113 [9 of 10 alive], 118, 147 % of control
- survivor count (dose: 10.0 mg/kg/injection, schedule: Q04DX003 (ip), vehicle: Klucel (hydroxypropylcellulose) (HPC)): 5 of 10
- T/C (dose: 12.0 mg/kg/injection, schedule: Q01DX009 (ip), vehicle: saline): 129 % of control
- T/C (dose: 12.5 mg/kg/injection, schedule: Q01DX005 (ip), vehicle: other): 125 and 145 % of control
- survivor count (dose: 20.0 mg/kg/injection, schedule: Q01DX009 (ip), vehicle: Klucel (hydroxypropylcellulose) (HPC)): 10 of 10
- T/C [1]: 86 [9 of 10 alive] and 98 % of control [9 of 10 alive]
- survivor count [1]: 10 of 10
- survivor count (dose: 35.0 mg/kg/injection, schedule: Q04DX003 (ip), vehicle: Klucel (hydroxypropylcellulose) (HPC)): 10 of 10
- T/C (dose: 37.5 mg/kg/injection, schedule: Q01DX001 (ip), vehicle: saline): 132 % of control
- survivor count (dose: 37.5 mg/kg/injection, schedule: Q04DX003 (ip), vehicle: Klucel (hydroxypropylcellulose) (HPC)): 10 of 10
- T/C (dose: 37.5 mg/kg/injection, schedule: Q04DX003 (ip), vehicle: saline, evaluated on day 45): 138 % of control
- T/C (dose: 37.5 mg/kg/injection, schedule: Q04DX003 (ip), vehicle: saline, evaluated on day 60): 88 and 119 % of control [9 of 10 alive]
- survivor count (dose: 37.5 mg/kg/injection, schedule: Q04DX003 (ip), vehicle: saline): 9 of 10
- T/C [2]: 127 % of control
- survivor count [2]: 4 of 10 and 10 of 10
- survivor count (dose: 45.0 mg/kg/injection, schedule: Q04DX003 (ip), vehicle: Klucel (hydroxypropylcellulose) (HPC)): 10 of 10
- T/C (dose: 50.0 mg/kg/injection, schedule: Q01DX001 (ip), vehicle: saline): 107, 113 [9 of 10 alive], 116, 122, 133, 134 % of control
- survivor count (dose: 50.0 mg/kg/injection, schedule: Q01DX005 (ip), vehicle: other): 10 of 10
- survivor count (dose: 50.0 mg/kg/injection, schedule: Q01DX009 (ip), vehicle: saline): 9 of 10 and 10 of 10 (2×)
- survivor count (dose: 50.0 mg/kg/injection, schedule: Q04DX003 (ip), vehicle: Klucel (hydroxypropylcellulose) (HPC)): 10 of 10
- T/C (dose: 50.0 mg/kg/injection, schedule: Q04DX003 (ip), vehicle: saline): 127 % of control [9 of 10 alive]
- T/C (dose: 75.0 mg/kg/injection, schedule: Q01DX001 (ip), vehicle: saline): 134 % of control
- survivor count (dose: 75.0 mg/kg/injection, schedule: Q04DX003 (ip), vehicle: Klucel (hydroxypropylcellulose) (HPC)): 10 of 10
- T/C [3]: 91 and 125 % of control
- survivor count [3]: 10 of 10 (2×)
- survivor count (dose: 80.0 mg/kg/injection, schedule: Q04DX003 (ip), vehicle: Klucel (hydroxypropylcellulose) (HPC)): 5 of 10
- T/C (dose: 100.0 mg/kg/injection, schedule: Q01DX001 (ip), vehicle: saline): 118 [9 of 10 alive], 121, 131, 137 [9 of 10 alive], 138 % of control (2×)
- survivor count (dose: 100.0 mg/kg/injection, schedule: Q01DX005 (ip), vehicle: other): 10 of 10
- survivor count (dose: 100.0 mg/kg/injection, schedule: Q01DX005 (ip), vehicle: water): 10 of 10
- survivor count (dose: 100.0 mg/kg/injection, schedule: Q01DX009 (ip), vehicle: saline): 10 of 10
- survivor count (dose: 150.0 mg/kg/injection, schedule: Q04DX003 (ip), vehicle: saline): 8 of 10, 9 of 10, 10 of 10
- T/C [4]: 123 and 153 % of control [9 of 10 alive]
- survivor count [4]: 8 of 10, 9 of 10, 10 of 10
- survivor count (dose: 200.0 mg/kg/injection, schedule: Q01DX005 (ip), vehicle: water): 10 of 10
- survivor count (dose: 200.0 mg/kg/injection, schedule: Q04DX003 (ip), vehicle: Klucel (hydroxypropylcellulose) (HPC)): 10 of 10
- survivor count (dose: 200.0 mg/kg/injection, schedule: Q04DX003 (ip), vehicle: saline): 9 of 10
- survivor count (dose: 200.0 mg/kg/injection, schedule: Q04DX003 (ip), vehicle: water): 10 of 10
- survivor count (dose: 300.0 mg/kg/injection, schedule: Q04DX003 (ip), vehicle: saline): 6 of 10 and 9 of 10
- survivor count (dose: 400.0 mg/kg/injection, schedule: Q01DX001 (ip), vehicle: saline): 6 of 10 and 9 of 10
- survivor count (dose: 400.0 mg/kg/injection, schedule: Q04DX003 (ip), vehicle: water): 10 of 10

Compound: O=NN(CCCl)C(=O)N[C@H]1CCCC[C@@H]1Cl
- T/C (dose: 10.0 mg/kg/injection, schedule: Q04DX004 (ip), vehicle: Klucel (hydroxypropylcellulose) (HPC)): 135 % of control
- T/C (dose: 10.0 mg/kg/injection, schedule: Q04DX004 (ip), vehicle: saline): 135 % of control
- T/C (dose: 20.0 mg/kg/injection, schedule: Q04DX004 (ip), vehicle: saline): 146 % of control
- survivor count (dose: 40.0 mg/kg/injection, schedule: Q04DX004 (ip), vehicle: Klucel (hydroxypropylcellulose) (HPC)): 9 of 10
- survivor count (dose: 40.0 mg/kg/injection, schedule: Q04DX004 (ip), vehicle: saline): 10 of 10
- survivor count (dose: 80.0 mg/kg/injection, schedule: Q04DX004 (ip), vehicle: saline): 10 of 10

Compound: COc1cccc2c1C(=O)c1c(O)c3c(c(O)c1C2=O)C[C@@](O)(C(C)=O)C[C@@H]3OC1CC(N)C(O)C(C)O1 (some centres undefined)
- T/C (dose: 0.1 mg/kg/injection, schedule: Q01DX015 (ip), vehicle: saline): 128 % of control [8 of 10 alive]
- T/C (dose: 0.4 mg/kg/injection, schedule: Q01DX010 (ip), vehicle: saline): 138 % of control

Compound: COC(=O)C1CC(=O)C2(C)CCc3c(ccc4cc(OC)ccc34)C12 (centres undefined)
- survivor count (dose: 400.0 mg/kg/injection, schedule: Q01DX001 (sc), vehicle: steroid suspending solution): 10 of 10
